These are literature values, as cited in publication PMC10046020, “In Silico Screening and Optimization of Cell-Penetrating Peptides Using Deep Learning Methods” (Biomolecules, 2023).

For the data set the following is noted: Spreadsheet S1: 150 CPP and 150 non-CPP peptides collected from CellPPD, MLCPP, CPPsite 2.0, Lifetein and other publications; cited from earlier work. An excerpt:
Supplement biomolecules-13-00522-s001.zip/biomolecules-2162660_Supplementary Spreadsheets S1 Test Set.csv, table | column: class || Supplement biomolecules-13-00522-s001.zip/biomolecules-2162660_Supplementary Spreadsheets S2 Train Set.csv, table | column: class

Regarding GLFEAIEGFIENGWEGMIDGWYGGGGRRRRRRRRRK, the “class (CPP / Non-CPP), Test Set” value was “CPP”.
